The results in this text go back to patent US20040077029A1.

These are yes or no findings as the source states them, for the method shown. Some entries that bind do so weakly or less than the wild type.

In experiment [1] the target is T1, human protooncogene HCCR-1 protein product (human) (UniProt Q6P1Q0).
T1 sequence (looked up): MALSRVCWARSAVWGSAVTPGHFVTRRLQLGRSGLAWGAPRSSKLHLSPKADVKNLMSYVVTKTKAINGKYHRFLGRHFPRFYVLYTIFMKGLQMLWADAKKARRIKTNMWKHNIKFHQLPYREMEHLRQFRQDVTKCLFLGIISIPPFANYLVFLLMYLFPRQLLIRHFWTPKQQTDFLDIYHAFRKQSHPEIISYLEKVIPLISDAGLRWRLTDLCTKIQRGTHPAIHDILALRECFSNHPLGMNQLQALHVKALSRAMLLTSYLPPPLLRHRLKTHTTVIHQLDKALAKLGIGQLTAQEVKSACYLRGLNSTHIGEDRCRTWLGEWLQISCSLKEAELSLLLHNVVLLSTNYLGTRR
Kind of experiment: yeast two-hybrid (Example 1).

Experiment [2] addresses T1, human protooncogene HCCR-1 protein product (human). Kind of experiment: yeast two-hybrid (LexA bait HCCR-1, human fetal brain AD fusion library).

B1: KG-19 protein (protein, not shown: large carriers)
chain: MFVETLWKVWTELLDVLGLDVSNLSQYFSPASVSSSPARALLLVGVVLLAYWFLSLTLGFTFSVLHVVFGRFFWIVRVVLFSMSCVYILHKYEGEPENAVLPLCFVVAVYFMTGPMGFYWRSSPSGPSNPSNPSVEEKLEHLEKQVRLLNIRLNRVLESLDRSKDK
Regarding B1, the binding result in experiment [1] and in experiment [2] was “binds” throughout.
